From patent US20130011436A1 come the findings set out here.

Chains of the proteins cited; added tags and fusions are not shown.
UniProt P61073: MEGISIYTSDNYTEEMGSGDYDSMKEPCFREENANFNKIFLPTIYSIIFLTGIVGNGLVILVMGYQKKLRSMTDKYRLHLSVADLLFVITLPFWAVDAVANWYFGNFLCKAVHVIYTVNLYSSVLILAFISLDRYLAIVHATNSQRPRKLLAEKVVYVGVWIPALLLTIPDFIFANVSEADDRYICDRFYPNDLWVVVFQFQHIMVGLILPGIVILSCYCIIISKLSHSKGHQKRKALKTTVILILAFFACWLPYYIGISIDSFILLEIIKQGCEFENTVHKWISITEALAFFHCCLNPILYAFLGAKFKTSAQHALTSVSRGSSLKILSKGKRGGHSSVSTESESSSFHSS

The target of the experiment is CXCR4 receptor expressed on SupT-1 cells (UniProt P61073). As to the kind of experiment: flow cytometry on SupT-1 cells; biotinylated CXCR4-A-Fc (300 µg/ml) and streptavidin-PE. (A flow cytometer gives signals particle by particle.)

These are yes or no findings as the source states them, for the method shown. Some binding calls cover weakened binding; strength is not graded here. Tags and fused reporters may be left off the sequences shown.

As for KGVSLSYR (Fc fusion, biotinylated in the flow cytometry assay (site not stated)) [CXCR4-A-Fc fusion protein], the binding entry is “binds”.
